In article PMC5937772:
These are yes or no findings as the source states them, for the method shown. Binding seen in cells or lysates may run through a third protein. Some binding calls cover weakened binding; strength is not graded here.

By UniProt entry, the sequences of proteins in these tests, tags left out. Where a name states a change or a piece, a line headed by the entry shows the natural chain unless it says otherwise. Chains listed by the source or under a name are the forms on record and can include a tag or linker. Residues count along the entry.
PAC1R (human (endogenous in HEK293T)) (P41586, residues 21-468): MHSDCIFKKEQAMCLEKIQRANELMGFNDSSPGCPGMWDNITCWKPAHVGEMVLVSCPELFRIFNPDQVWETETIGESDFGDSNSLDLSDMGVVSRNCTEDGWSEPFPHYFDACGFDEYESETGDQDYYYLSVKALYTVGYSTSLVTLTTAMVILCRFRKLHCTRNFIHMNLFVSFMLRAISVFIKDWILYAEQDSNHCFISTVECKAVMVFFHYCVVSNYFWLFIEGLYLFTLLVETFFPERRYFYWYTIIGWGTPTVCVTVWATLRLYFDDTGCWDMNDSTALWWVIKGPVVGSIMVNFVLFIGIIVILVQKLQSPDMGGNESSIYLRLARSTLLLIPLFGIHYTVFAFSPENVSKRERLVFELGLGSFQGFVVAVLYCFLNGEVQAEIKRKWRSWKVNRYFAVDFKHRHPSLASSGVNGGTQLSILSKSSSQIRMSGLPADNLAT
PAC1R-SmBiT (P41586, form named): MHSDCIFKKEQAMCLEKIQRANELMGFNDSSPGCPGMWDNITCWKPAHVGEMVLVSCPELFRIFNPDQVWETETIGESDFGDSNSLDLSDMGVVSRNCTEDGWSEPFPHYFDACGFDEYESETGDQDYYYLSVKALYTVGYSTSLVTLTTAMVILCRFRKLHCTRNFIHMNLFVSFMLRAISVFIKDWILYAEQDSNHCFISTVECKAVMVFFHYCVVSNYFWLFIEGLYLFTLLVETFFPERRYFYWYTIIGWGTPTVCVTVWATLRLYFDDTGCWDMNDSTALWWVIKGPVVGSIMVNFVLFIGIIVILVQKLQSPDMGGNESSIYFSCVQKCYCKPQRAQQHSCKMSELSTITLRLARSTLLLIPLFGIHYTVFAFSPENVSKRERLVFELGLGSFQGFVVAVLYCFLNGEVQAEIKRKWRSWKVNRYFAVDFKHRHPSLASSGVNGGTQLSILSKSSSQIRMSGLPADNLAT
UniProt P32121: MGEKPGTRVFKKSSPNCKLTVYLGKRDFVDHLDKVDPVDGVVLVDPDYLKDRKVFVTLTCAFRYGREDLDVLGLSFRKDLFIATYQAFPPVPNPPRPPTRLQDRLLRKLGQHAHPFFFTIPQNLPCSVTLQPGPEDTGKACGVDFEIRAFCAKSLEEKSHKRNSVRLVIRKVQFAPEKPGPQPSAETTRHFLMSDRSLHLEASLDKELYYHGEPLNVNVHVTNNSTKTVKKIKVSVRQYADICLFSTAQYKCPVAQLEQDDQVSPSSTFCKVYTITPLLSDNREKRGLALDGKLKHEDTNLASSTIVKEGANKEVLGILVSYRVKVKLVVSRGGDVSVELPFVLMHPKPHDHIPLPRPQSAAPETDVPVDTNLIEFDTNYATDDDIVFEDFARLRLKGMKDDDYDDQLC
UniProt P49407: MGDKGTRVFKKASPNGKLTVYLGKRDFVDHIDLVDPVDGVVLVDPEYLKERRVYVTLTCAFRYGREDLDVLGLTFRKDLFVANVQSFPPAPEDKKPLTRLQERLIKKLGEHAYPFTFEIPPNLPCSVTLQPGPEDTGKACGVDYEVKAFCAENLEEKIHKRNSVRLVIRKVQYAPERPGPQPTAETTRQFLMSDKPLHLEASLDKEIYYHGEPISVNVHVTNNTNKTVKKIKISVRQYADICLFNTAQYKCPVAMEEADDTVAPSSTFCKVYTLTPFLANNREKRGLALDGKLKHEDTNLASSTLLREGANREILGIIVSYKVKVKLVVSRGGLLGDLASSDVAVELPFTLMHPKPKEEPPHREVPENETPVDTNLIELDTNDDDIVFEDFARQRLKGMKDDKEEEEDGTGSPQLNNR

What was measured:
PAC1R-SmBiT (human) [1] = target: PAC1R-SmBiT (human) (UniProt P41586); assay: split reporter; NanoBiT time-lapse luminescence imaging (Olympus LV200) of HeLa cells infected with lentiviruses, 1 μM PACAP, 3-60 min
PAC1R-SmBiT (human) [2] = target: PAC1R-SmBiT (human) (UniProt P41586); assay: split reporter; NanoBiT in mouse primary cultured cortical neurons (DIV 3) infected with lentiviruses; PACAP dose series and time course to 60 min; time-lapse imaging with 1 μM PACAP
PAC1R-SmBiT (human) [3] = target: PAC1R-SmBiT (human) (UniProt P41586); assay: split reporter; NanoBiT in living HEK293T cells transfected with SmBiT and LgBiT fusions, Opti-MEM, Nano-Glo Live Cell Reagent, GloMAX discover; stimulated with PACAP (100 nM; dose series; up to 60 min); pretreatments for 30 min: 30 μM CMPD101 (inhibited), 20 μM H89 or 50 μM sphingosine (no effect)
[4] = target: PAC1R (human (endogenous in HEK293T)) (UniProt P41586); assay: co-IP; HEK293T cells stimulated with 1 μM PACAP for 15 min, cross-linked with 2.5 mM DSP for 30 min at room temperature, lysed in RIPA buffer; antibody-coupled protein G-Sepharose beads, 2 h at 4°C; blots with anti-PAC1R and anti-β-arrestin1/2

Row | binding (PAC1R-SmBiT (human) [1]) | binding (PAC1R-SmBiT (human) [2]) | binding (PAC1R-SmBiT (human) [3]) | binding [4] | Substance
1 | binds | binds | binds |  | LgBiT-β-arrestin2 (from UniProt P32121 1-409)
2 |  |  |  | binds | β-arrestin1 (from UniProt P49407 1-418)
3 |  |  |  | binds | β-arrestin2 (from UniProt P32121 1-409)
4 | binds | binds | binds |  | β-arrestin1-LgBiT (from UniProt P49407 1-418)
